## Assay results

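HEK293T cells with a CRE beta-lactamase reporter, where the FRET ratio shows how compounds affect cAMP-driven signaling over roughly 3 hours.
Each compound was run as a concentration series, mostly reaching a top of 92.4 µM.
Fitted potency from the dose curve; a lower value means a more potent compound.
Calls come from the whole dose curve: active means a well-fitted inhibition curve with enough effect in repeat runs, inconclusive means weak, mixed or opposite-direction curves, and inactive means a flat curve.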

Values are in nM.
All entries here are filed as inconclusive.
Only part of the assay is shown, chiefly results filed as inconclusive.
Potencies fitted to partial, single-point or poorly fitting curves are rough.
Some entries filed as inconclusive have a full curve.
The first word of each remark tells which way the curve ran; it can be opposite to the aim of the assay.
An entry listed twice with the same setting is a separate test.

SMILES | Potency (nM) | remark
N[C@@H](Cc1ccc(N(CCCl)CCCl)cc1)C(=O)O | 23710 | activator
C=C1C[C@H]2[C@@H]3C=C(C)C4=CC(=O)CC[C@]4(C)[C@H]3CC[C@]2(C)[C@@]1(OC(C)=O)C(C)=O | 25987 | fluorescent, partial curve
CC(C)(C)C(O)/C(=C\c1ccc(Cl)cc1Cl)n1cncn1 (configuration not stated) | 82982 | single point
O=C(Nc1ccccc1)c1cc(Cl)ccc1O | 54482 | -
CCOc1cccc(-n2cc(C(=O)N3CCN(c4cc(C(=O)O)c5ccccc5c4)CC3)nc2-c2ccc(C)cc2)c1 | 51998 | fluorescent, partial curve
CCC[N+](=O)[O-] | 23891 | rising, full curve
CCC(=O)O[C@H]1CC[C@H]2[C@@H]3CCC4=CC(=O)CC[C@]4(C)[C@H]3CC[C@]12C | 42518 | fluorescent
Nc1ccc(Cl)cc1C(=O)c1ccccc1F | 33491 | single point
c1ccc(Nc2ccc3ccccc3c2)cc1 | 68171 | single point
CCN(CC)c1ccc(C(=O)c2ccccc2C(=O)O)c(O)c1 | 19390 | fluorescent, partial curve
CC(C)(C)c1ccc(O)c(C(C)(C)C)c1 | 30513 | -
CCCN(CCc1cccs1)[C@H]1CCc2c(O)cccc2C1 | 33491 | -
O=c1cc(-c2ccccc2)oc2ccccc12 | 50610 | activator, single point
CCCCCCCCCCCC[N+](C)(C)C | 68589 | fluorescent, single point
C[C@]12C=CC3=C4CCC(=O)C=C4CC[C@H]3[C@@H]1CC[C@@H]2O | 60695 | fluorescent, partial curve, poor fit
CCCC[P+](CCCC)(CCCC)CCCC | 32028 | activator, partial curve, poor fit
OC/C(Br)=C(\Br)CO | 1.5 | rising, full curve, poor fit
O=C(c1ccc(OCCN2CCCCC2)cc1)c1c(-c2ccc(O)cc2)sc2cc(O)ccc12 | 61130 | fluorescent, partial curve
Fc1ccc(C2(Cn3cncn3)OC2c2ccccc2Cl)cc1 (configuration not stated) | 48557 | activator, partial curve, poor fit
O=NN1CCCC1 | 32076 | inhibitor, full curve
CCOP(=S)(OCC)SCn1c(=O)oc2cc(Cl)ccc21 | 26104 | activator, partial curve
CCCCCCCC[N+](C)(CCCCCCCC)CCCCCCCC | 1088 | fluorescent, full curve
CC[N+]1(C)CCCC1 | 13713 | activator, full curve
O=C(Nc1ccc(Cl)cc1)Nc1ccc(Cl)c(Cl)c1 | 24212 | rising, partial curve, poor fit
C[C@]12CCC(=O)C=C1CC[C@@H]1[C@@H]2CC[C@@]2(C)[C@H]1CC[C@]2(C)O | 25485 | activator
CCC(=O)O[C@H]1CC[C@H]2[C@@H]3CCC4=CC(=O)CC[C@]4(C)[C@H]3CC[C@]12C | 21131 | activator, partial curve, poor fit
N#CCCC(Br)(C#N)CBr (configuration not stated) | 68589 | -
CCCCCCC(C)Nc1ccc(Nc2ccccc2)cc1 (configuration not stated) | 68589 | activator, partial curve, poor fit
C[C@H](CCC(=O)O)[C@H]1CC[C@H]2[C@@H]3CC[C@@H]4C[C@H](O)CC[C@]4(C)[C@H]3CC[C@]12C | 50761 | rising, partial curve
C=C1C(C)(C)[C@@]2(Cl)C(Cl)[C@]1(Cl)C(Cl)(Cl)C2(Cl)Cl (some centres not stated) | 67336 | fluorescent
CCN(CC)C(=S)[S-].CCN(CC)C(=S)[S-].[Zn+2] | 8556 | rising, partial curve
COc1ccc2[nH]cc(CCN(C(C)C)C(C)C)c2c1 | 78824 | activator
O=C(O)Cn1c(=O)n(Cc2ccc(Br)cc2F)c(=O)c2ccc(Cl)cc21 | 68589 | activator
c1cc[c]([Hg][c]2ccccc2)cc1 | 27306 | single point
CC(C)(c1ccccc1)c1ccc(O)cc1 | 61130 | -
CC(C)=CCC[C@](C)(O)[C@@H]1CC=C(C)CC1 | 68589 | -
CN(C)c1ccc(N=Nc2ccccc2C(=O)O)cc1 | 21689 | activator, full curve, poor fit
O=C1CC2(CCCC2)CC(=O)N1CCCCN1CCN(c2ncccn2)CC1 | 61130 | activator, single point
c1cc(OCC2CO2)cc(OCC2CO2)c1 (configuration not stated) | 68031 | fluorescent, single point
CC(C)CC(C)Nc1ccc(Nc2ccccc2)cc1 (configuration not stated) | 18997 | activator
CCc1ccc(O)c(C(C)(C)C)c1 | 54482 | rising, partial curve
COC(=O)C(C)N(C(=O)c1ccco1)c1c(C)cccc1C (configuration not stated) | 71669 | rising, partial curve, poor fit
CCOC(=O)COC(=O)c1ccccc1C(=O)OCC | 61130 | activator
c1ccc2c(c1)cc1ccc3cccc4ccc2c1c34 | 62313 | fluorescent, partial curve
O=C(O)c1cn(C2CC2)c2cc(Cl)c(F)cc2c1=O | 5956 | fluorescent, full curve, poor fit
CCCCCCOC(=O)c1ccc(O)cc1 | 61192 | -
CCOC(=O)[C@H](CCc1ccccc1)N[C@@H](C)C(=O)N1Cc2cc(OC)c(OC)cc2C[C@H]1C(=O)O | 11883 | activator, partial curve
O=C(O)CCCl | 31043 | activator, full curve
Cc1ccc2c(c1)CCCN2 | 22674 | inhibitor, single point
C=CC(C)(C)CC(=O)OC | 77193 | inhibitor, single point
CCCCNC(=O)OCC#CI | 68589 | -
CN1CCN(C2=Nc3ccccc3Sc3ccc(Cl)cc32)CC1 | 21131 | fluorescent

4 of the entries, repeated:

{"smiles": "CCCCNC(=O)OCC#CI", "Potency (nM)": "68589"}
{"smiles": "O=C(Nc1ccccc1)c1cc(Cl)ccc1O", "Potency (nM)": "54482"}
{"smiles": "CCOC(=O)[C@H](CCc1ccccc1)N[C@@H](C)C(=O)N1Cc2cc(OC)c(OC)cc2C[C@H]1C(=O)O", "Potency (nM)": "11883", "remark": "activator, partial curve"}
{"smiles": "CCOP(=S)(OCC)SCn1c(=O)oc2cc(Cl)ccc21", "Potency (nM)": "26104", "remark": "activator, partial curve"}

Data taken from PubChem BioAssay AID1963591, deposited by Tox21 (2024).